Patent US10786451B2, “Process for preparing a dry powder formulation comprising an anticholinergic, a corticosteroid and a beta-adrenergic” (CHIESI FARMACEUTICI S.P.A., priority 2015, dated 2020)
Structures can show the parent of a compound that is named as a salt.

Key:
[1] = Uniformity of distribution of the active ingredients in the blend (12 samples, HPLC); format: physicochemical
Protocol: In the context of the present application the flow properties were tested by measuring the flow rate through an orifice according to the method described in the European Pharmacopeia (Eur. Ph.) 8.6, 8th Edition, which is incorporated herein by reference in its entirety. […] It is usually determined according to known methods, for instance by taking samples from different parts of the powder and testing the component by HPLC or other equivalent analytical methods. The uniformity of distribution of the active ingredients was evaluated by withdrawing 12 samples from different parts of the blend and evaluated by HPLC.

[2] = Particle size (volume diameter) by laser diffraction, Malvern apparatus; format: physicochemical; settings: micronized material as used
Protocol: The size of the particles active is determined by measuring the characteristic equivalent sphere diameter, known as volume diameter, by laser diffraction. In the reported examples, the volume diameter has been determined using a Malvern apparatus. However, other equivalent apparatus may be used by the skilled person in the art.

## COc1ccc(CC(C)NCC(O)c2ccc(O)c(NC=O)c2)cc1 (centres unmarked) [FF, formoterol fumarate dihydrate]
[1]; powder formulation of Example 2 (6 μg FF, 100 μg BDP, 12.5 μg GB per 10 mg carrier), mean value, RSD in next column
  Uniformity of distribution: 99.4
[1]; powder formulation of Example 3 (6 μg FF, 100 μg BDP, 25 μg GB per 10 mg carrier)
  Uniformity of distribution: 99.6
[2]
  particle size d(v0.1): 0.9 micron
  particle size d(v0.5): 2.3 micron
  particle size d(v0.9): 4.2 micron
